Source: PubChem BioAssay AID1671190 (National Center for Advancing Translational Sciences (NCATS), 2021)
The whole screen tested about 580,000 compounds, of which about 6,100 (1.1%) were called active. Inconclusive results, whose numbers are uncertain, are shown with a selection of clear calls. Calls come from the whole dose curve; as a rule, active = well fitted inhibition curve with a large enough effect; inconclusive = small, poorly fitted or top-dose-only effect, or another doubt; inactive = no such curve, though single readings can be large or run the other way. Where the call is inconclusive, the potency comes from a doubtful curve fit.

Amino acid sequences for entries named in this document (tags omitted). A change or cut given only in a name is not applied to a line headed by its entry.
UniProt P18054: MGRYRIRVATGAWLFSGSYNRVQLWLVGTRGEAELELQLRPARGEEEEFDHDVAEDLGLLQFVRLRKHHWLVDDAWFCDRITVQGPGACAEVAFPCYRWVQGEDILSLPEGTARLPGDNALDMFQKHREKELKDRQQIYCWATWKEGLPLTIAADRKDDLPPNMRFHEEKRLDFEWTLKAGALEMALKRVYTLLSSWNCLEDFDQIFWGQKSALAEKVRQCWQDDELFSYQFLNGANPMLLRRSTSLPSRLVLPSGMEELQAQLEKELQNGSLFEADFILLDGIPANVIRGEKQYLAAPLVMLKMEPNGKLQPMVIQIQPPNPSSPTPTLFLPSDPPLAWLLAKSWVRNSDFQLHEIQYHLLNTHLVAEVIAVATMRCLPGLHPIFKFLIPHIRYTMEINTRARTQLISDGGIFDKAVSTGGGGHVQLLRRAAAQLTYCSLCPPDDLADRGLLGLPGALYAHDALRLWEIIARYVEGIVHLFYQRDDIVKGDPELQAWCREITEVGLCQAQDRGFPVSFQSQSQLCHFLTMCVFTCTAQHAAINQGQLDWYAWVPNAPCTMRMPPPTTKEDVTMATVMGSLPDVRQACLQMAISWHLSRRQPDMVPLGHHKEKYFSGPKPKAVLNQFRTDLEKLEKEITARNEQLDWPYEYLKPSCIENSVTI

Molecular target: Polyunsaturated fatty acid lipoxygenase ALOX12 (Homo sapiens) (UniProt P18054)
Test: Primary qHTS assay for inhibitors of human arachidonate 12S-lipoxygenase (ALOX12): Round 2
Conditions: purified 12hLO, xylenol orange hydroperoxide absorbance; activity change, negative = inhibition: at 108 µM (top of the series) unless noted
Summary of the method: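 Purified human 12hLO (150 nM final) in 25 mM Hepes, 0.01% Triton X-100, pH 7.0 was preincubated 15 min at room temperature with compound. Then 40 uM arachidonic acid was added, 30 min. Hydroperoxide was read by Fe-XO absorbance ratio 573/405 nm.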
% is set by controls: 0 for no effect and ±100 for the full control effect; potency is the fitted concentration of half-maximal effect.

SMILES	Potency	activity change, negative = inhibition
O=[N+]([O-])c1cc(C(F)(F)F)ccc1NC1CCN(Cc2ccccc2)C1 (configuration not stated)	inconclusive: 100 µM [inhibitor, single point]	
CCOC(=O)CNC(=O)CSc1ncnc2c1cnn2-c1ccc(Cl)cc1	inactive	
CCc1ccc(NC(=S)N2CCCC(C(F)(F)F)C2)cc1 (configuration not stated)	inactive	
CN(C)S(=O)(=O)c1ccc2[nH]cc(/C=C/c3nc4ccccc4c(=O)n3-c3ccccc3)c2c1	inactive	
CCOC(=O)c1c(C)[nH]c(C)c1S(=O)(=O)NCc1ccccc1OCC	inactive	
COc1cccc(NS(=O)(=O)c2ccc(-c3cc(C)no3)s2)c1	inconclusive: 50.1 µM [inhibitor, partial curve, poor fit]	
O=C(/C=C/c1ccccc1)NCCS(=O)(=O)N1CCN(c2ccccc2)CC1	inconclusive: 112 µM [inhibitor, single point]	
CC(C)CC(=O)NC[C@@H]1C[C@H](F)CN1C(=O)CCCc1cccs1	inactive	
Cc1cc(Cl)c(OCCOCCN2CCC(C)CC2)c(Br)c1	inconclusive: 0.447 µM [inhibitor, full curve, poor fit]	
Cc1sc(NC(=O)C2CC(=O)N(Cc3ccco3)C2)nc1-c1ccccc1 (configuration not stated)	inconclusive: 39.8 µM [inhibitor, partial curve, poor fit]	
COc1ccc(CN2C(=O)CO[C@H](c3ccc(NC(=O)c4ccc(F)cc4)cc3)[C@H]2CO)cc1	inactive	
Cc1cccc(N2CCN(C(=O)c3cnn(-c4cccc(Cl)c4C)c3C3CCNCC3)CC2)c1C	inconclusive: 50.1 µM [inhibitor, partial curve, poor fit]	
COc1ccc(-c2c(C#N)c(N)nc3c2CN(Cc2ccccc2)CC3)cc1OC	inconclusive: 39.8 µM [inhibitor, single point]	
CCOC(=O)c1[nH]nc2c1C(=O)N(CC)C2=O	inconclusive: 39.8 µM [inhibitor, partial curve, poor fit]	
O=C(O)C1C2CCC(C2)C1C(=O)NCCCn1ccnc1 (configuration not stated)	inactive	
COC(=O)CCc1sc(Nc2ccccc2)nc1-c1ccc(OC)cc1	inconclusive: 100 µM [inhibitor, partial curve, poor fit]	
CCc1noc(C)c1C(=O)OCC(=O)c1ccccc1OC	inconclusive: 7.94 µM [inhibitor, full curve, poor fit]	
O=S(=O)(Cc1ccc(Cl)cc1)NCc1ccc2c(c1)OCO2	inconclusive: 39.8 µM [inhibitor, partial curve, poor fit]	
O=C(c1ccncc1)N1CCC2(CCCN(Cc3nccs3)C2)CC1	inconclusive: 31.6 µM [inhibitor, single point]	
CC(C)(C)CC(=O)N[C@H]1C[C@@H](Cc2cc(COc3ccccc3)on2)C1(C)C	inconclusive: 70.8 µM [inhibitor, partial curve, poor fit]	
O=C1CSC(=S)N1N=Cc1cccc2ccccc12	inconclusive: 50.1 µM [inhibitor, partial curve, poor fit]	

SMILES	Potency	activity change, negative = inhibition
Fc1ccc(-c2nc3c(Cl)cc(C(F)(F)F)cn3c2Cc2cccc(Cl)c2)cc1	inconclusive: 39.8 µM [inhibitor, partial curve, poor fit]	
O=C(C(c1ccccc1)c1ccccc1)N(Cc1ccco1)C1CC1	inactive	
CN(C)CCCN(Cc1ccc(Cl)c(Cl)c1)C(=O)/C=C/c1ccncc1	inconclusive: 112 µM [inhibitor, single point]	
CC(=O)c1ccc(N/N=C(/C(N)=O)C2=NC(C)(C)Cc3ccccc32)cc1	inconclusive: 50.1 µM [inhibitor, partial curve, poor fit]	
CC1CCN(Cc2ccc(-c3nnn(CC(=O)Nc4ccccc4Cl)n3)cc2)CC1	inactive	
CCCc1nc2ccccc2n2c(-c3ccc(C)cc3)c3c(=O)n(C)c(=O)n(C)c3c12	inconclusive: 63.1 µM [inhibitor, partial curve, poor fit]	
O=C(c1ccco1)N1CCN(C(c2ccc(Cl)cc2)c2nnnn2CC2CCCO2)CC1 (configuration not stated)	inconclusive: 35.5 µM [inhibitor, partial curve, poor fit]	
Cc1ccc(S(=O)(=O)Nc2ccc3oc(C)nc3c2)c(C)c1	inconclusive: 44.7 µM [inhibitor, partial curve, poor fit]	
CCOc1ccc(OCCCC(=O)N2CCN(S(=O)(=O)c3ccc(Cl)cc3)CC2)cc1	active: 44.7 µM	
O=C(CN1CCN(C(=O)C2COc3ccccc3O2)CC1)Nc1ccc(F)cc1 (configuration not stated)	inconclusive: 141 µM [inhibitor, partial curve, poor fit]	
Cc1cccc(C(=O)NC(=S)Nc2ccccc2C(F)(F)F)c1	active: 15.8 µM	
Fc1ccc(C2Nc3cccc4cccc(c34)N2)cc1	inconclusive: 50.1 µM [inhibitor, partial curve, poor fit]	
C[C@H](C(=O)N(C)CCC#N)C1CC[C@@]2(C)Cc3sc(NC(=O)c4cccn4C)nc3[C@@H](C)[C@@H]2[C@H]1O (some centres not stated)	inconclusive: 100 µM [inhibitor, partial curve, poor fit]	
CC(=O)c1ccc2noc(-c3ccccc3)c2c1	inconclusive: 50.1 µM [inhibitor, partial curve, poor fit]	
CC(SCc1ccccc1)C(=O)N/N=C/c1cc2c(cc1Br)OCO2 (configuration not stated)	inactive	
Cc1nc(SCc2ccc(O)c([N+](=O)[O-])c2)n[nH]1	inconclusive: 100 µM [inhibitor, partial curve, poor fit]	
CC1(C)CC(=O)C=C(c2ccc(-c3cccc(C(N)=O)c3)cc2)C1=O	inconclusive: 100 µM [inhibitor, single point]	
O=C(O)c1ccc(S(=O)(=O)NC2CCCCC2)cc1	inconclusive: 12.6 µM [inhibitor, full curve]	
CCOC(=O)c1[nH]c2ccc(C)cc2c1NC(=O)c1ccccc1F	inconclusive: 44.7 µM [inhibitor, partial curve, poor fit]	
CC1CCCCN1S(=O)(=O)c1ccc(NC(=O)CSc2nnnn2C)cc1 (configuration not stated)	inconclusive: 44.7 µM [inhibitor, partial curve, poor fit]	
CCCc1nn2c(=O)c(C(c3ccc(C)cc3)c3c(O)nc4sc(CCC)nn4c3=O)c(O)nc2s1	inconclusive: 14.1 µM [inhibitor, partial curve, poor fit]	

Exported as a markdown table: entries from further up

| SMILES | Potency | activity change, negative = inhibition |
| --- | --- | --- |
| Fc1ccc(C2Nc3cccc4cccc(c34)N2)cc1 | inconclusive: 50.1 µM [inhibitor, partial curve, poor fit] |  |
| C[C@H](C(=O)N(C)CCC#N)C1CC[C@@]2(C)Cc3sc(NC(=O)c4cccn4C)nc3[C@@H](C)[C@@H]2[C@H]1O (some centres not stated) | inconclusive: 100 µM [inhibitor, partial curve, poor fit] |  |
| CC(=O)c1ccc2noc(-c3ccccc3)c2c1 | inconclusive: 50.1 µM [inhibitor, partial curve, poor fit] |  |
| CC(SCc1ccccc1)C(=O)N/N=C/c1cc2c(cc1Br)OCO2 (configuration not stated) | inactive |  |

Following part.

SMILES	Potency	activity change, negative = inhibition
CN=C1S/C(=C\c2cc(C)n(-c3ccccc3F)c2C)C(=O)N1C	inconclusive: 39.8 µM [inhibitor, partial curve]	
CCOc1ccc(NC(=O)c2ccc(NC(=O)c3ccc4ccccc4n3)cc2)cc1	inconclusive: 28.2 µM [inhibitor, partial curve, poor fit]	
CCCn1nc(C)cc1CN(C)c1ccc(NC(=O)c2ccc(OC)cc2)cc1C(=O)O	active: 4.47 µM	
O=C(c1cccc(F)c1)N1CCC2(CC1)CCN(c1cccc(-c3ccccc3)c1)CC2	inconclusive: 31.6 µM [inhibitor, single point]	
Cc1ccc(NC(=O)Nc2ccc3c(c2)OCO3)c(OC(F)F)c1	inconclusive: 56.2 µM [inhibitor, partial curve, poor fit]	
O=C(CCS(=O)(=O)c1nc(-c2ccc3c(c2)OCO3)cc(C(F)(F)F)n1)Nc1ccccc1F	inconclusive: 6.31 µM [inhibitor, full curve, poor fit]	
CCc1nnc(Cn2cnc3scc(-c4ccc(Cl)cc4)c3c2=O)o1	inactive	
Cc1ccccc1NC(=O)C1CCc2nc(N3CCN(C(=O)C(C)C)CC3)sc2C1 (configuration not stated)	inconclusive: 70.8 µM [inhibitor, single point]	
Cc1ccccc1OCc1nnc(SCCN2CCCC2)n1-c1ccccc1	inactive	
O=c1oc2ccccc2c(O)c1CN1CCCCC1	inconclusive: 0.112 µM [inhibitor, full curve, poor fit]	
COc1ccc(N2CCN(S(=O)(=O)CCNC(=O)C34CC5CC(CC(C5)C3)C4)CC2)cc1	inconclusive: 100 µM [inhibitor, single point]	
COc1ccc(C(=O)Nc2c(NCc3ccccc3)c3ccccc3oc2=O)cc1	inconclusive: 12.6 µM [inhibitor, full curve]	
CCN(C(=O)CCn1cnc2onc(-c3ccc(F)cc3)c2c1=O)c1ccc(OC)cc1	inconclusive: 112 µM [inhibitor, partial curve, poor fit]	
Cc1ccc(NC(=S)N(C)N)cc1Cl	inconclusive: 44.7 µM [inhibitor, partial curve, poor fit]	
COc1ccc(Cn2c(C)c3c(=O)n(-c4ccc(Cl)cc4)[nH]c3cc2=O)cc1	inconclusive: 50.1 µM [inhibitor, partial curve, poor fit]	
O=C(CSc1ccc2c(c1)OCCCO2)c1ccc2c(c1)CCO2	inconclusive: 44.7 µM [inhibitor, partial curve, poor fit]	
COc1cc(NC(=O)c2ccc(Br)o2)c(C(=O)O)cc1OC	inconclusive: 89.1 µM [inhibitor, single point]	
CC(CCc1ccccc1)NC(=O)c1ccc(NC(=O)c2cccc(Br)c2)cc1 (configuration not stated)	inactive	
Cc1cccc(OCc2occc2C(=O)Nc2cccc(-n3cnnn3)c2)c1	inconclusive: 14.1 µM [inhibitor, partial curve, poor fit]	
CCOC(=O)c1c(NC(=O)CSc2nc3ccc(OC)cc3[nH]2)sc2c1CC(C)(C)NC2(C)C		inconclusive: -44.8% [inhibitor]
